Test results: PubChem BioAssay AID1347076 (National Center for Advancing Translational Sciences (NCATS), 2019)
The campaign covered roughly 400,000 compounds. About 13,000 (3.2%) were called active. This list was built around the results that the source calls inconclusive (neither active nor inactive); the mix of calls is not that of the screen. The call rests on the fitted dose curve; in most records, active means well fitted cell-killing curve with a large enough effect; inconclusive means small, poorly fitted or top-dose-only effect, or effect the other way; inactive means flat fitted curve, though single readings scatter. Potencies beside an inconclusive call are fits to weak or partial responses and may not hold up.

Test: qHTS assay for MDR1-selective chemotherapeutics: Primary screen using the drug-selected MDR subline cells KB-V1; further: nearly all actives have a fitted effect of over 60% in size
Details: KB-V1 MDR cells viability, CellTiter-Glo, 72 h; activity change, negative = cytotoxicity: at 46.1 µM (top of the series)
Outline: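 KB-V1 cells (P-gp-expressing MDR subline of KB-3-1) in phenol-red-free DMEM with 10% FBS were exposed to library compounds over a concentration series for 72 h at 37 degrees C. Viability read by CellTiter-Glo luminescence; concentration-effect curves fitted after normalization.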
On the % scale 0 is the no-effect control and ±100 the full control effect; potency means the concentration at half of the fitted maximal effect.

Row | SMILES | Potency | activity change, negative = cytotoxicity
1 | C/C(=N\NC(=O)C1(C)CC1(Br)Br)c1cccc(NC(=O)C2CCC2)c1 (configuration not stated) | inconclusive: 13 µM [cytotoxic, partial curve, poor fit] | –
2 | COCCNC(=O)COc1ncnc2scc(-c3ccc(F)cc3)c12 | – | inactive: 1.27%
3 | CCOc1ccc(-n2nc3c(Cl)nnc(C)c3c2C)cc1 | – | inconclusive: -47.9%
4 | COc1cc(OC)c(NC2(c3ccccc3)C(=O)c3ccccc3C2=O)cc1Cl | inconclusive: 29.1 µM [rising, single point] | –
5 | Oc1cc(OCc2ccccc2)ccc1-c1[nH]ncc1-c1ccccc1 | – | inactive: -24.8%
6 | O=C(NCCc1nnc2ccc(N3CCCCCC3)nn12)c1ccccc1F | inconclusive: 8.2 µM [cytotoxic, partial curve] | –
7 | COc1ccc(S(=O)(=O)N2CCCCC2)cc1C(C)C | inconclusive: 20.6 µM [cytotoxic, partial curve, poor fit] | –
8 | COc1ccc(S(=O)(=O)N2CCCC2CNC(=O)C(=O)NCc2cccs2)cc1 (configuration not stated) | inconclusive: 11.6 µM [cytotoxic, partial curve] | –
9 | COc1ccc(N2CCN(C(=S)Nc3ccc(OC)cc3OC)CC2)cc1 | – | inactive: 3.48%
10 | COc1cc(/C=c2\[nH]c(=O)/c(=C/c3cc(OC)c(OC)c(OC)c3)[nH]c2=O)cc(OC)c1OC | – | inactive: 0%
11 | COc1cccc(NC(=O)CSc2nc3cc(OC)c(OC)cc3c3nc(-c4ccccc4)nn23)c1 | inconclusive: 18.4 µM [rising, single point] | –
12 | CC(=O)Nc1ccc(NC(=O)c2nc(S(=O)(=O)Cc3cccc(C)c3)ncc2Cl)cc1 | inconclusive: 29.1 µM [cytotoxic, single point] | –
13 | COC(=O)CCC(=O)OC1(C)C(=O)C2=COC(c3ccc(OC)cc3)=CC2=C(Br)C1=O (configuration not stated) | – | inactive: -19%
14 | NC1=NC2(CCC(c3ccccc3)CC2)n2c(nc3ccccc32)N1 (configuration not stated) | – | inactive: 20.4%
15 | C[C@H](NC(=O)OC(C)(C)C)c1nnc(SCc2c(F)cccc2Cl)o1 | inconclusive: 14.6 µM [cytotoxic, partial curve] | –
16 | CC(Sc1nnc(Cc2cccs2)n1C1CCCCC1)C(=O)NCc1ccco1 (configuration not stated) | – | inactive: -5.06%
17 | Cc1ccc(-c2ccc(C(=O)O)[nH]2)cc1 | – | inactive: 3.86%
18 | Cc1cc(C(=O)N(C)CC2CCCN(CCc3ccc(F)cc3)C2)c(C)o1 (configuration not stated) | inconclusive: 2.31 µM [cytotoxic, full curve] | –
19 | O=C(O)CP(=O)(O)O | inconclusive: 0.651 µM [rising, full curve, poor fit] | –
20 | COc1ccc(COc2ccsc2C(=O)Nc2ccc(Cl)cc2)cc1 | active: 9.2 µM | –
21 | CCN(CC(=O)Nc1c(F)cccc1F)C(=O)C1CCN(c2ncnc3sc(C)c(C)c23)CC1 | active: 13 µM | –
22 | CN(Cc1ccccc1F)c1ccc(S(=O)(=O)N2CCCC2)cn1 | inconclusive: 29.1 µM [cytotoxic, single point] | –
23 | Cn1c(CO)cnc1S(=O)(=O)Cc1ccc(Cl)cc1 | inconclusive: 23.1 µM [rising, single point] | –
24 | CCN(C(=O)/C=C/c1cc(OC)c(OC)c(OC)c1)C1CCCCC1 | inconclusive: 2.91 µM [cytotoxic, full curve, poor fit] | –

Row | SMILES | Potency | activity change, negative = cytotoxicity
25 | CN(Cc1ccccc1)Cc1nc2c(c(=O)n(C)c(=O)n2C)n1CCc1ccccc1 | – | inactive: -4.62%
26 | Cc1ccc(-c2nc3c4ccccc4[nH]c(=O)n3n2)cc1 | – | inactive: -2.98%
27 | Nn1c(SCc2ccccc2F)nnc1-c1ccncc1 | inconclusive: 29.1 µM [rising, single point] | –
28 | Cc1cccc(C)c1NC(=O)C1(C)CSCC(=O)N1Cc1cccc(C(F)(F)F)c1 (configuration not stated) | inconclusive: 10.3 µM [cytotoxic, partial curve] | –
29 | CCc1nc2ccc(C(=O)N3CCN(c4cccc(C)c4C)CC3)cc2nc1CC | inconclusive: 23.1 µM [cytotoxic, single point] | –
30 | COCCn1c(=O)c2c(nc3n2CCCN3CCc2ccccc2)n(C)c1=O | – | inactive: 0.0542%
31 | Cc1ccc(O)c(NC(=O)c2cc(C)no2)c1 | – | inactive: 15.2%
32 | CCCN1C(=O)/C(=N\OCC(=O)NC23CC4CC(CC(C4)C2)C3)c2ccccc21 | active: 16.4 µM | –
33 | CS(=O)(=O)c1ccc(Cl)c(NC(=O)COC(=O)CCCN2C(=O)c3cccc4cccc(c34)C2=O)c1 | – | inactive: -16.5%
34 | Cc1c(NC(=O)c2ccco2)cccc1C(=O)NN1C(=O)c2ccccc2C1=O | – | inactive: 14.8%
35 | CN(C(=O)COC(=O)CCc1nc2ccccc2c(=O)[nH]1)C1CCS(=O)(=O)C1 (configuration not stated) | inconclusive: 16.4 µM [rising, single point] | –
36 | O=C(CN1CCC(C(=O)c2ccc(Cl)cc2)CC1)Nc1ccc2c(c1)OCCO2 | active: 9.2 µM | –
37 | CCN(C(=O)c1coc(=O)c(Br)c1)c1ccc2c(c1)OCO2 | – | inactive: 0%
38 | Cc1ccccc1CSc1nc2n(n1)C(c1cccs1)C1=C(CCCC1=O)N2 (configuration not stated) | inconclusive: 29.1 µM [cytotoxic, single point] | –
39 | Cc1nc2c(c(=O)c3ccccc3n2C)c(=O)n1-c1ccccc1 | inconclusive: 29.1 µM [cytotoxic, single point] | –
40 | O=S(=O)(c1ccc2c(c1)OCO2)N1CCN(c2nnnn2-c2ccccc2)CC1 | inconclusive: 16.4 µM [cytotoxic, single point] | –
41 | Cc1ccnc(NC(=O)/C=C/c2ccccc2Cl)c1 | inconclusive: 23.1 µM [cytotoxic, single point] | –
42 | COc1ccc(CCNC(=O)COc2ccc(N(C)S(=O)(=O)c3ccc(C)cc3)cc2)cc1OC | – | inactive: -8.61%
43 | COc1cc2nc(C3CCC3)n(NC(=O)COc3ccccc3)c(=O)c2cc1OC | inconclusive: 3.26 µM [cytotoxic, partial curve] | –
44 | Cc1ccc(S(=O)(=O)N(C)CC(=O)OCC(=O)N2CC(=O)Nc3ccccc32)cc1 | – | inconclusive: 20%
45 | CCOc1ccc(-c2cc(OC(=O)c3ccc(OC)cc3)c3c(C)oc(C)c3c(=O)c2)cc1 | inconclusive: 29.1 µM [rising, single point] | –
46 | COc1cccc(/C=N/Nc2ncnc3c2ncn3Cc2ccccc2)c1O | active: 0.517 µM | –
47 | COC(=O)c1c(NC(=O)C2C3C=CC(CC3)C2C(=O)O)sc(C)c1C (configuration not stated) | inconclusive: 16.4 µM [cytotoxic, partial curve] | –
48 | Cc1ccc(C)c2c1cc(C)c1nnc(SCC(=O)c3cccs3)n12 | inconclusive: 16.4 µM [cytotoxic, partial curve] | –

As entered above:
In Potency, COc1cccc(/C=N/Nc2ncnc3c2ncn3Cc2ccccc2)c1O is entered as active: 0.517 µM
In Potency, COc1cc2nc(C3CCC3)n(NC(=O)COc3ccccc3)c(=O)c2cc1OC is entered as inconclusive: 3.26 µM [cytotoxic, partial curve]

Continued:

Row | SMILES | Potency | activity change, negative = cytotoxicity
49 | CCOC(=O)c1nc(Nc2ccc(C(C)=O)cc2)c2ccccc2n1 | inconclusive: 29.1 µM [cytotoxic, single point] | –
50 | Cc1[nH]n(-c2ccc([N+](=O)[O-])cc2)c(=O)c1C=NCC1CCCO1 (configuration not stated) | inconclusive: 18.4 µM [cytotoxic, partial curve, poor fit] | –
51 | COc1cccc(/C=N/NC(=O)CNC(=O)c2ccco2)c1O | inconclusive: 7.31 µM [cytotoxic, partial curve] | –
52 | CCN(CC)C(=O)C(=O)c1cc(C)n(-c2ccc(F)cc2)c1C | inconclusive: 20.6 µM [cytotoxic, partial curve, poor fit] | –
53 | CCS(=O)(=O)c1ncc(Cl)c(C(=O)Nc2ccc(C)cc2)n1 | – | inactive: -9.94%
54 | CCOC(=O)C1(CCOc2ccccc2)CCN(Cc2cccc(OC)c2)CC1 | inconclusive: 11.6 µM [cytotoxic, single point] | –
55 | COC(=O)[C@@]1(Cc2ccc(OC)cc2)[C@H]2c3cc(C(=O)N4CCCC4)n(Cc4ccc(C)c(F)c4F)c3C[C@H]2CN1C(=O)c1ccccc1 | active: 7.31 µM | –
56 | c1ccc(-c2noc(-c3ccc4c(c3)OCO4)n2)nc1 | active: 4.11 µM | –
57 | CC(=O)Nc1ccc(C(=O)CCl)cc1 | inconclusive: 16.4 µM [cytotoxic, partial curve, poor fit] | –
58 | COc1cccc(-c2cnc3c(NC=O)cc(-c4ccc(S(C)(=O)=O)cc4)cn23)c1 | inconclusive: 25.9 µM [cytotoxic, single point] | –
59 | Cn1ccc2cc3c(cc21)CCN3C(=O)Nc1cccnc1 | inconclusive: 29.1 µM [cytotoxic, single point] | –
60 | Nc1nnc(CC(=O)N/N=C/c2ccc(-c3ccc(F)cc3)o2)s1 | – | inactive: -14.2%
61 | CCN(C#N)c1nc(NC(C)C)nc(NC(C)C)n1 | – | inactive: -14.1%
62 | c1ccc2[nH]c(CCCCCc3nc4ccccc4[nH]3)nc2c1 | – | inactive: 1.57%
63 | CCOC(=O)CCn1nc(-c2ccccc2)cc1N | inconclusive: 29.1 µM [cytotoxic, single point] | –
64 | CN1C(=O)c2cccc3c(N(C)C)ccc(c23)C1=O | active: 11.6 µM | –
65 | Cc1ccc(C)c(CN2CCC(CNC(=O)Nc3ccc(Br)cc3F)CC2)c1 | inconclusive: 29.1 µM [cytotoxic, single point] | –
66 | O=C(Cn1c(=O)oc2cc(S(=O)(=O)N3CCCCCC3)ccc21)NCc1ccccc1Cl | inconclusive: 4.11 µM [cytotoxic, full curve] | –
67 | Cc1cc(Oc2c(C(F)(F)F)oc3c(CN4CCC(C)CC4)c(O)ccc3c2=O)cc(C)c1Cl | – | inactive: 0%
68 | Cc1cccc(-n2ccnc2SCC(=O)Nc2ccc(F)cc2F)c1C | inconclusive: 32.6 µM [cytotoxic, single point] | –
69 | C=CCNc1sc(C(=O)C(C)(C)C)c(N)c1C#N | inconclusive: 29.1 µM [cytotoxic, partial curve, poor fit] | –
70 | Fc1ccc(-c2csc3nnc(SCc4cccnc4)n23)cc1 | – | inactive: 0.285%
71 | CN(C)CCCn1c2c(c(SCC(=O)Nc3cccc4ccccc34)nc1=O)CCCC2 | inconclusive: 0.651 µM [rising, partial curve, poor fit] | –
72 | Clc1cccc(-c2nc(-c3ccc(-c4nn[nH]n4)cc3)no2)c1 | – | inactive: 10.3%
